Results are given in words; binding and its absence hold for the method and conditions named. In cells and extracts the contact can be indirect. These calls come from enrichment with a bait or labelling near it, and not all partners need be listed. Where a sequence is shown, tags or fusion partners need not be part of it.
T1: canonical FNDC4 protein (fibronectin III domain containing 4), Myc-FLAG-tagged (human) (UniProt Q9H6D8)
T1 sequence: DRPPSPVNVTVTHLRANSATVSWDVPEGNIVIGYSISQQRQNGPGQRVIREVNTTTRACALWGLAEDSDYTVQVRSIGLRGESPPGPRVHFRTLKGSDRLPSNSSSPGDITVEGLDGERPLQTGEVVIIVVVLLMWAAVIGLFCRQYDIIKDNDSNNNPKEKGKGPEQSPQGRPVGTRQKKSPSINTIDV

Chains of the proteins cited; added tags and fusions are not shown. Lines headed by an entry give the natural chain unless they say otherwise; changes in a name come on top. Residues count along the entry.
UniProt Q03135: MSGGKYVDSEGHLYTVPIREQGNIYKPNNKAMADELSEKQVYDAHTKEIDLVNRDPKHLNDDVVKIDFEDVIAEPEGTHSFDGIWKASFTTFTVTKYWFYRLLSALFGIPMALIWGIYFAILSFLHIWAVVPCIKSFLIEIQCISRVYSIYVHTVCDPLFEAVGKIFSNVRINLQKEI
UniProt P05556: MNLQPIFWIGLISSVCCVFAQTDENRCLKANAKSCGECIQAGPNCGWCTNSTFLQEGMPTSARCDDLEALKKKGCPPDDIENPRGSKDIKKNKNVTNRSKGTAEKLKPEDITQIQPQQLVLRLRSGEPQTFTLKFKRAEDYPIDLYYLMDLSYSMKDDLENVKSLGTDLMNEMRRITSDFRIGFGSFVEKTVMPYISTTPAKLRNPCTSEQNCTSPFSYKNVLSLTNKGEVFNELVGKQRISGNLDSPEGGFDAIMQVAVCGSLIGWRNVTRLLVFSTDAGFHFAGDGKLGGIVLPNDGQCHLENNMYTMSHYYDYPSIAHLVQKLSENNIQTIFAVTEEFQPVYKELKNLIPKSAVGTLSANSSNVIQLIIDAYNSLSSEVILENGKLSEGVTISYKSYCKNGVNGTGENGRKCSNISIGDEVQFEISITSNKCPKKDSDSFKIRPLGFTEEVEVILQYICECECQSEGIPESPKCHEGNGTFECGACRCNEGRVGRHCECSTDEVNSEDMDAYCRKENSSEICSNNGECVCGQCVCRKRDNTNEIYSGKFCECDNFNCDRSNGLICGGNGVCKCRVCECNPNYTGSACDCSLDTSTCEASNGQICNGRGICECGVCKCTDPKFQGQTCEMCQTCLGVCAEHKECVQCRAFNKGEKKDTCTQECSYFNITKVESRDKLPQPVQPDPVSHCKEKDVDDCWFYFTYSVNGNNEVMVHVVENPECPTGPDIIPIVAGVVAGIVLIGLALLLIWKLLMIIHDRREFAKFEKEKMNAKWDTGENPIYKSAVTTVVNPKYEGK
UniProt P14625, residues 22-803: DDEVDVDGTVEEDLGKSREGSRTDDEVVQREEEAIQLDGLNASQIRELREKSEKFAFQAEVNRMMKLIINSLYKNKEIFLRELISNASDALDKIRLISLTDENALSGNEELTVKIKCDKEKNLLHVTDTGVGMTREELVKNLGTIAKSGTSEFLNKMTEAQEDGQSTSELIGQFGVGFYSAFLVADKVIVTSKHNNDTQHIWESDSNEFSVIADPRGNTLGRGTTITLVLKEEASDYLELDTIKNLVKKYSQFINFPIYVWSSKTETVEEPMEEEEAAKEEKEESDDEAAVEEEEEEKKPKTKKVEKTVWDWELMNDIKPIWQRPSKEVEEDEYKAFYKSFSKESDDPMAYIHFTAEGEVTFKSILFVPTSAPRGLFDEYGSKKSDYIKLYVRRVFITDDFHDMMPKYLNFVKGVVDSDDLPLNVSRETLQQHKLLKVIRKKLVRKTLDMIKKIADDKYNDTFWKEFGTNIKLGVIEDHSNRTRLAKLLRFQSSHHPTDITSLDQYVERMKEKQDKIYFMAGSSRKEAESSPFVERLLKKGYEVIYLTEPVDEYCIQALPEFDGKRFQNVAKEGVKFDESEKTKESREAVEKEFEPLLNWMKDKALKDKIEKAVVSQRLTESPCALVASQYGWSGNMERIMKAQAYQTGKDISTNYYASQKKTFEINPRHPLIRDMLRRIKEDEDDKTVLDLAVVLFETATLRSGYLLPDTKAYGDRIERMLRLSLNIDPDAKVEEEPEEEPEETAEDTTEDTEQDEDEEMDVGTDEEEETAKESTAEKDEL
UniProt P08758: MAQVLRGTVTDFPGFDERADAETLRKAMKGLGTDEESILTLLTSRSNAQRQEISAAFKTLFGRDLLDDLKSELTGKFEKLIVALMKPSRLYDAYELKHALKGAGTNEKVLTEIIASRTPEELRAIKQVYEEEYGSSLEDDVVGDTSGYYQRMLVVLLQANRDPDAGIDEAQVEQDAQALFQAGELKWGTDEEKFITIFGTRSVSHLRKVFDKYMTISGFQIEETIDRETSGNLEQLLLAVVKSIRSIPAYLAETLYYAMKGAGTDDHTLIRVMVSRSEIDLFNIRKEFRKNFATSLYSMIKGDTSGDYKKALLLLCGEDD

B1: REEP3 (protein, UniProt Q6NUK4 1-255)
chain: MVSWMISRAVVLVFGMLYPAYYSYKAVKTKNVKEYVRWMMYWIVFALYTVIETVADQTVAWFPLYYELKIAFVIWLLSPYTKGASLIYRKFLHPLLSSKEREIDDYIVQAKERGYETMVNFGRQGLNLAATAAVTAAVKSQGAITERLRSFSMHDLTTIQGDEPVGQRPYQPLPEAKKKSKPAPSESAGYGIPLKDGDEKTDEEAEGPYSDNEMLTHKGLRRSQSMKSVKTTKGRKEVRYGSLKYKVKKRPQVYF
B2: GHITM (protein, UniProt Q9H3K2 46-345)
chain: ATKTRIGIRRGRTGQELKEAALEPSMEKIFKIDQMGRWFVAGGAAVGLGALCYYGLGLSNEIGAIEKAVIWPQYVKDRIHSTYMYLAGSIGLTALSAIAISRTPVLMNFMMRGSWVTIGVTFAAMVGAGMLVRSIPYDQSPGPKHLAWLLHSGVMGAVVAPLTILGGPLLIRAAWYTAGIVGGLSTVAMCAPSEKFLNMGAPLGVGLGLVFVSSLGSMFLPPTTVAGATLYSVAMYGGLVLFSMFLLYDTQKVIKRAEVSPMYGVQKYDPINSMLSIYMDTLNIFMRVATMLATGGNRKK

Target: T1, canonical FNDC4 protein (fibronectin III domain containing 4), Myc-FLAG-tagged (human)
Assay: affinity purification with mass spectrometry; Myc-FLAG-tagged FNDC4 (canonical or truncated) or empty vector overexpressed in iPSC-derived NPCs; anti-MYC magnetic beads; IP samples separated by SDS-PAGE, gel sections cut for MS; proteins also found in the empty vector or truncated FNDC4 samples filtered out

binding, binds:
CAV1 (from UniProt Q03135 1-178)
integrin subunit β-1 (ITGB1) (from UniProt P05556 21-798)
HSP90B1 (from UniProt P14625 22-803)
ANXA5 (from UniProt P08758 1-320)
B1
B2

From PMC12948423
